Record: PubChem BioAssay AID1671195 (Yale University, 2021)
Assay: 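Knockdowns that increase or decrease uptake of fluorescent LDL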 (primary screen). System: human Huh7 hepatoma cells. Reagents: siRNA pool against human genes, 18 nM. Timing: about 2 to 2.5 days of knockdown, then 8 h LDL uptake. Challenge: DiI-labelled LDL at 30 µg/ml for 8 h, in lipoprotein-deficient serum medium. Measurement: 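Fluorescent LDL signal imaged in cells, scaled to the plate median, robust z-score for each replicate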. Direction: robust z-score: higher = more LDL uptake after knockdown. Rule for the call: 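Active when two or more replicates show a robust z-score above 2 or below -2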.
Here is a random part of about 22,000 reagents tested. Of all reagents, about 1,510 (6.9%) were called active. 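Active includes knockdowns raising or lowering LDL uptake; positive z-scores mean more uptake, negative mean less.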 A number with no mark means an inactive call.

gene knocked down	robust z-score, replicate 1	robust z-score, replicate 2	robust z-score, replicate 3
MMP28	-0.346	-0.654	0.584
ASB11	1.78	0.661	1.95
CYP17A1	0.845	0.629	0.607
KRTAP4-12	1.01	0.115	-0.448
ZNF830	1.97	2.01	1.54
GP1BA	-0.968	-0.791	-0.44
HOXB6	0.376	0.596	0.9
ERV3-2	0.244	0.304	0.528
OSBPL11	-1.34	-0.764	-1.06
MC3R	1.46 (active)	2.48	2.36
VAV1	-1.37	-0.983	-0.978
LYSMD4	-0.207	-0.748	-0.693
ADRB2	2.31	1.52	1.46
P2RY8	-0.00469	0.048	0.787
PDIA2	1.58	1.23	1.96
SHQ1	-0.501	0.614	-0.697
TAPT1-AS1	-0.221	-0.167	-0.376
LINC00880	1.6	1.22	1.44
ARHGAP9	0.121	0.53	0.664
SMURF2	-0.308	-0.414	-1.1
NPIPB7	0.697	0.501	0.392
RNASE9	0.857	0.34	0.67
STMND1	-0.496	-0.0116	-0.394
NUTM2F	0.354	-0.559	-0.527
RAPGEF5	-0.457	-0.117	-0.00985
PIP4P2	0.451	0.648	-0.618
KLHL35	-0.957	-1.02	-1.21
CCL26	-1.4	-1.08	-1.38
ACAD11	0.104	0.131	-0.195
LOC389695 (retired record)	0.64	1.4	0.306

Laid out differently: entries from further up.
CYP17A1
- robust z-score, replicate 1: 0.845
- robust z-score, replicate 2: 0.629
- robust z-score, replicate 3: 0.607

KRTAP4-12
- robust z-score, replicate 1: 1.01
- robust z-score, replicate 2: 0.115
- robust z-score, replicate 3: -0.448

ZNF830
- robust z-score, replicate 1: 1.97
- robust z-score, replicate 2: 2.01
- robust z-score, replicate 3: 1.54

GP1BA
- robust z-score, replicate 1: -0.968
- robust z-score, replicate 2: -0.791
- robust z-score, replicate 3: -0.44

HOXB6
- robust z-score, replicate 1: 0.376
- robust z-score, replicate 2: 0.596
- robust z-score, replicate 3: 0.9

ERV3-2
- robust z-score, replicate 1: 0.244
- robust z-score, replicate 2: 0.304
- robust z-score, replicate 3: 0.528

OSBPL11
- robust z-score, replicate 1: -1.34
- robust z-score, replicate 2: -0.764
- robust z-score, replicate 3: -1.06

MC3R
- robust z-score, replicate 1: 1.46 (active)
- robust z-score, replicate 2: 2.48
- robust z-score, replicate 3: 2.36

VAV1
- robust z-score, replicate 1: -1.37
- robust z-score, replicate 2: -0.983
- robust z-score, replicate 3: -0.978

LYSMD4
- robust z-score, replicate 1: -0.207
- robust z-score, replicate 2: -0.748
- robust z-score, replicate 3: -0.693

ADRB2
- robust z-score, replicate 1: 2.31
- robust z-score, replicate 2: 1.52
- robust z-score, replicate 3: 1.46

P2RY8
- robust z-score, replicate 1: -0.00469
- robust z-score, replicate 2: 0.048
- robust z-score, replicate 3: 0.787

PDIA2
- robust z-score, replicate 1: 1.58
- robust z-score, replicate 2: 1.23
- robust z-score, replicate 3: 1.96

Additional entries:
gene knocked down	robust z-score, replicate 1	robust z-score, replicate 2	robust z-score, replicate 3
YY2	1.45	1.15	1.38
LOC441621 (retired record)	0.905	0.905	1.07
KCNH8	-0.723	-1.11	-0.585
AGAP11	-0.0902	-0.263	-0.569
UBXN6	3.41 (active)	2.47	2.84
LINC02245	0.217	-0.516	-0.136
ZNF75D	0.901	0.861	0.514
SERTAD2	-0.731	-1.51	0.291
NKAPL	-0.633	-0.66	-0.371
TIGD5	0.68	0.904	0.46
RABGAP1	0.666	0.599	2.42
PRSS33	0.000474	0.415	0.258
CD1B	0.197	0.0224	1.42
UQCRC1	0.254	0.00279	0.33
OR8G2P	-1.29	-1.06	-1.03
LINC02687	0.136	-0.676	-0.601
ATP1B3	0.77	1.36	0.389
TOPORS	1.1	1.77	0.361
VN1R17P	-0.831	-0.852	-0.889
EFCAB11	-1.61	-1.5	-1.43
GLT6D1	-0.175	0.0282	-0.344
SLC26A5	0.545	-0.201	0.492
SV2C	-1.02	-0.855	-0.965
CIAO3	-0.334	-1.05	-0.261
KRTAP1-1	-1.23	-1.61	-1.57
ESCO1	0.935	-2.37	0.0123
GUF1	-0.316	-0.424	0.0329
SAP18	-0.405	-0.552	-0.283
TRH	1.07	1.35	1.6
ZNF507	-0.469	-0.128	0.0563
CCDC144NL	2.58 (active)	2.28	2.6
NOSTRIN	-0.639	1.12	0.662
SPDEF	-0.463	-0.568	-0.272
ZNF818P	-0.0848	0.00383	0.089
OR5M1	0.58	0.825	0.49
HAND2-AS1	-2.31 (active)	-2.17	-2.05
LRRTM1	2.44 (active)	2.94	2.74
LINC00312	-0.947	0.435	0.0137
LOC441316 (retired record)	-0.36	0.199	1.06
PTPN5	0.847	0.14	0.0965
SPIN1	-0.964	1.33	-0.49
KLF3-AS1	-0.115	0.27	-0.0874
ADTRP	0.376	1.11	0.352
FSTL4	-0.744	-0.221	-0.464
KBTBD2	-0.252	-0.109	-1.16
ARHGAP39	-0.444	0.0439	-0.213
MICALL2	-1.22	-0.875	-0.854
LOC338731 (retired record)	0.575	0.631	0.84
NIPAL4	0.675	1.66	0.423
SMIM10L2A	0.31	0.378	0.0553
POMT1	-1.19	-1.3	-0.655
TMED8	1.36	1.46	1.34
CXorf66	0.705	0.259	0.326
ICMT	-1.29	-1.34	-1.79
CETN1	-0.146	-0.737	-0.552
BZW1	0.841	3.37	0.853
LALBA	-0.783	-1.61	-1.22
